Assay results: patent US20230113501A1, “TREATMENT OF LEUKEMIAS AND LYMPHOMAS WITH COMBINATIONS OF BCL-2 INHIBITORS AND PLK1 INHIBITORS” (Cardiff Oncology, Inc., priority 2020, published 2023)
At least one compound was matched to its structure with a doubt left.

Test system: OCI-AML3 xenograft
Assay: Efficacy of onvansertib alone and in combination with venetoclax in an OCI-AML3 xenograft model (tumor volume, survival)
Assay type: in vivo, CB17 NOD.SCID mice
Description: In this example, the efficacy of onvansertib alone and in combination with venetoclax was evaluated in an OCI-AML3 xenograft model.
The OCI-AML3 cell line easily engrafts in NOD/SCID mice, maintaining the typical features of NPMc+ AML, including NPM cytoplasmic expression.
OCI-AML3 cells (DSMZ cat no: ACC 582) were cultured in RPMI supplemented with 10% FBS and 1%P/S, in a humidified incubator at 37° C. and 5% CO2. Normocin (Invivogen) was also added according to the manufacturer's recommendation to prevent mycoplasma growth.
CB17 NOD.SCID mice (female, 5 weeks old) were procured through Envigo (Strain NOD.CB17-Prkdc*scidNCrHsd). Mice were fed Teklad irradiated (sterilized) mouse diet and bedded with Teklad irradiated (sterilized) corncob bedding from Envigo (Indianapolis, Ind.). Mice were housed in Optimice carousel sterile quarters with filtered air supply in disposable cages from Animal Care Systems, Inc. (Centennial, Colo.).
On the day of implantation (Oct. 8, 2019), OCI-AML3 cells were collected and spun at 400 ×g. Media was aspirated and cells were resuspended in 50:50 *Cultrex:PBS (w/o calcium and magnesium) at a concentration of 1×10^8 cells/mL. A volume of 100 μL was injected into the right hind flank of each animal (a total of 1×10^7 cells). Filled syringes and cells were kept on ice to prevent gelling of matrigel. *Cultrex: BME, type 3, 17.24 mg/mL R&D systems Cat. #3632-005-02, Lot #40498J17
Tumor volumes were monitored, and, when mean tumor volume reached ˜200 mm^3, mice were stratified and placed into (4) treatment groups of (10) mice as outlined in Table 1.
Treatments were administered by oral gavage (polypropylene needles, Instech, Cat. FTP-20-38) daily for venetoclax for 14 days, and 5 days on 2 days off for two cycles for Onvansertib. For clarity, the combination was dosed so that venetoclax was given daily and the onvansertib was given 5 days on, 2 days off, just like the single agent groups.
Individual tumor volumes were measured by electronic caliper 2× a week.
Using tumor volumes from day 14 (the last day with all mice on study), an ordinary ANOVA test with a Dunnett's multiple comparison was performed using Prism (graphpad v. 8.3.0) (Table 4).
A survival graph was plotted (FIG. 2) and survival analysis (death=takedown for tumor burden limit) was also performed using Prism software (individual comparisons of survival curves using the Mantel-Cox test and Gehan-Breslow-Wilcoxon test shown in Table 5).

SMILES: CC1(C)CCC(CN2CCN(c3ccc(C(=O)NS(=O)(=O)c4ccc(NCC5CCOCC5)c([N+](=O)[O-])c4)c(Oc4cnc5[nH]ccc5c4)c3)CC2)=C(c2ccc(Cl)cc2)C1 [Venetoclax]
- Significant? Dunnett's multiple comparisons test (tumor volumes from day 14, vehicle vs. treatment): No
- Survival, Gehan-Breslow-Wilcoxon test, Are the survival curves sig different? (vehicle vs. treatment): No
- Survival, Log-rank (Mantel-Cox) test, Are the survival curves sig different? (vehicle vs. treatment): No
- Survival, Log-rank (Mantel-Cox) test, Chi square (vehicle vs. treatment, death = takedown for tumor burden limit): 0.4687
- Survival, Gehan-Breslow-Wilcoxon test, Chi square (vehicle vs. treatment, higher weighing for early events): 0.7625
- Activity in the OCI-AML3 xenograft (conclusion) (venetoclax 75 mg/kg, onvansertib 30 mg/kg, and the combination): not
- Tumor growth inhibition as single agent (venetoclax 75 mg/kg, onvansertib 30 mg/kg): did not have tumor growth inhibition
